These are yes or no findings as the source states them, for the method shown. Binding seen in cells or lysates may run through a third protein. A yes stands for co-enrichment or nearness to the bait. Other partners may have been found. Tags and fused reporters may be left off the sequences shown.
Biological target: T1, HA-SDE2UBL-PA activity-based probe (human) (UniProt Q6IQ49)
T1 sequence (chain, C-terminal propargylamide, Gly77 replaced with a propargyl electrophilic warhead): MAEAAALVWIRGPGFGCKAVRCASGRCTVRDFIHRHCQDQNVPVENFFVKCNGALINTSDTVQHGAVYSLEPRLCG
Test: affinity purification with mass spectrometry; HEK293 lysate with 1 µM HA-SDE2UBL-PA, anti-HA immunoprecipitation, trypsin digestion, DIA proteomics against a no-probe control, triplicate; only the target purified

The chains behind the UniProt entries cited, without tags or fusion partners.
UniProt P45974: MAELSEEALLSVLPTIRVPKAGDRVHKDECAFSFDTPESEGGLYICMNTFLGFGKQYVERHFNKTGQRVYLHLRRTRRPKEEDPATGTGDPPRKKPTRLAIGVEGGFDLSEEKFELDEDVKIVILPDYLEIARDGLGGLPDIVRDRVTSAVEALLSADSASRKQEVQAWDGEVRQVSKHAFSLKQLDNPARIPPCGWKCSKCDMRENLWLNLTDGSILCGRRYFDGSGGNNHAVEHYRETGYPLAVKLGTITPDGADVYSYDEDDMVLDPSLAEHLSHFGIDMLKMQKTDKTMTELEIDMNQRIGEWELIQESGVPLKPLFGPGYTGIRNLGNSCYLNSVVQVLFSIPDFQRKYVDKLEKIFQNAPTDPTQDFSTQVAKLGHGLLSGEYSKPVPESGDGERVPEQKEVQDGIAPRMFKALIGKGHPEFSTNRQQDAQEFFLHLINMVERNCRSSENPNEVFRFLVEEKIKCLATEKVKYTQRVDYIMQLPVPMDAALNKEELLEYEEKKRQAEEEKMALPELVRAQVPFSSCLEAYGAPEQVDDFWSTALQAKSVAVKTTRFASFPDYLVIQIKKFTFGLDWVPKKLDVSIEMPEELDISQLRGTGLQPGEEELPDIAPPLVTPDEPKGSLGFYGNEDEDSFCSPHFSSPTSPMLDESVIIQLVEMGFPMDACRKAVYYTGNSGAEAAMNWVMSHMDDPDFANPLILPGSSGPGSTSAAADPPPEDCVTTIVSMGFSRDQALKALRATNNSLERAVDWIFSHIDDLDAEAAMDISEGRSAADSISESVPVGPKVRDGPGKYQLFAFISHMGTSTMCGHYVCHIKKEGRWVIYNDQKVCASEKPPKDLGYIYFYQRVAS

binding: binds
Substance: endogenous USP5 of HEK293 cell lysate (from UniProt P45974 1-858) (enzyme)

From publication PMC13572447
